Several values for one entry are separate records, joined by “and”; a condition that tells them apart may be missing. Equal entries are not always repeated. Hit rate of the full screen: of about 300,000 compounds, about 5,400 (1.8%) were called active. The shares of active, inactive and inconclusive entries below differ from those in the screen. Calls follow the shape of the full dose curve; tested in HEK293 cells. Where the call is inconclusive, the potency comes from a doubtful curve fit.
Experiment: qHTS for inhibitors of binding or entry into cells for Marburg Virus
Settings: Marburg virus pseudotyped entry inhibition, cell reporter; activity change, negative = inhibition: at 37.8 µM (top of the series) unless noted
In the case of `CC(=O)Nc1ccc(Nc2ccc3c4c(cc(=O)n3C)-c3ccccc3C(=O)c24)cc1`, the Potency is reported as inconclusive: 1.41 µM [inhibitor, partial curve, poor fit].
With `N[C@@H](Cn1cc(I)c(=O)[nH]c1=O)C(=O)O` the Potency was inconclusive: 1.26 µM [inhibitor, full curve, poor fit].
For `CC1CCCC(C)N1C(=O)COc1cccc(Oc2ccccc2)c1` (stereo not given), the Potency was inconclusive: 12.6 µM [inhibitor, partial curve].
In the case of `O=C(COC(=O)c1ccc[nH]c1=O)NCCC1=CCCCC1`, the Potency is reported as inconclusive: 6.31 µM [inhibitor, single point].
In the case of `O=c1[nH]c2cc3c(cc2cc1C(c1nnnn1Cc1ccccc1)N1CCCc2ccccc21)OCO3` (stereo not given), the Potency is reported as inconclusive: 0.231 µM [inhibitor, full curve, poor fit].
With `Cc1ccc(C)c(S(=O)(=O)NCC(=O)Nc2sc3c(c2C(N)=O)CCC(C)C3)c1` (stereo not given) the Potency was inconclusive: 25.1 µM [inhibitor, single point].
For `COCCn1c(C)cc(C(=O)COC(=O)CNC(=O)c2ccccc2)c1C`, the “activity change, negative = inhibition” value was inactive: -7.34% [at 46.1 µM].
For `Cc1cc(O)cc(=O)n1Cc1ccco1`, the “activity change, negative = inhibition” value was inactive: 14.7%.
With `Cc1ccc2c(=O)cc(C(=O)Nc3c(C)cccc3C)oc2c1` the “activity change, negative = inhibition” value was inactive: -10.3% [at 46.1 µM].
With `Cc1n[nH]c(C)c1C(=O)CC1(O)C(=O)N(CCc2ccccc2)c2ccc(Br)cc21` (stereo not given) the Potency was inconclusive: 8.2 µM [inhibitor, partial curve, poor fit].
For `O=C(NCc1cccc(C(F)(F)F)c1)c1cccc(S(=O)(=O)NCc2ccccc2)c1`, the Potency was inconclusive: 2 µM [inhibitor, partial curve, poor fit].
With `Cc1ccc2[nH]c(CNC(=O)C3CCCCC3)cc2c1` the Potency was inconclusive: 6.31 µM [inhibitor, single point].
In the case of `Cc1ccccc1S(=O)(=O)Cc1ccc(C(=O)N2CCN(c3cccc(C)c3C)CC2)o1`, the Potency is reported as inconclusive: 11.2 µM [inhibitor, partial curve, poor fit].
In the case of `COc1ccc(/C=C/c2nc(C#N)c(N3CCCCC3)o2)cc1OC`, the Potency is reported as inconclusive: 35.5 µM [inhibitor, single point].
For `CCCNC(=O)Cn1c(=O)/c(=C/c2ccc(-c3ccc([N+](=O)[O-])cc3)o2)s/c1=C\C(=O)C(C)(C)C`, the Potency was inconclusive: 2.82 µM [inhibitor, partial curve, poor fit].
For `COc1cccc(C(C)NC(=O)c2ccncc2)c1` (stereo not given), the Potency was inconclusive: 35.5 µM [inhibitor, single point].
With `COc1ccccc1NS(=O)(=O)c1cc(C(=O)N2CCCCCCC2)ccc1C` the Potency was inconclusive: 25.1 µM [inhibitor, single point].
For `COc1ccc(S(=O)(=O)c2c(Nc3cccc(Cl)c3)sc(C(=O)c3ccccc3)c2N)cc1`, the Potency was inconclusive: 25.1 µM [inhibitor, single point].
For `Cc1c(C)c2c(C)nn(-c3ccccc3)c2[nH]c1=O`, the Potency was inconclusive: 8.2 µM [inhibitor, partial curve, poor fit].
For `COc1ccc(-c2cc(C(F)F)n3ncc(C(=O)NCC4CCCO4)c3n2)cc1` (stereo not given), the Potency was inconclusive: 7.08 µM [inhibitor, partial curve, poor fit].
In the case of `COc1ccc(Oc2nc3c(c(=O)n(C)c(=O)n3C)n2Cc2ccccc2)cc1`, the Potency is reported as inconclusive: 35.5 µM [activator, single point].
For `Cc1ccc(NS(=O)(=O)c2cc(C(=O)NCCSC3CCCCC3)ccc2C)cc1`, the Potency was inconclusive: 16.4 µM [inhibitor, partial curve, poor fit].
With `Cc1ccc(NC(=O)Cn2c3ccc(F)cc3c3nc4n(c(=O)c32)CCS4)cc1F` the Potency was inconclusive: 15.8 µM [inhibitor, partial curve, poor fit].
For `COc1ccc(NC(=O)C2CCN(C(=O)Nc3ccccc3)CC2)cc1S(=O)(=O)N(C)C`, the “activity change, negative = inhibition” value was inactive: 2.81%.
In the case of `Cc1noc(C)c1COC(=O)c1cccc(S(=O)(=O)N2CCOCC2)c1`, the “activity change, negative = inhibition” value is reported as inactive: -7.31%.
For `CCC(=O)N1CCc2cc(Br)cc(S(=O)(=O)N3CCCC(C(=O)NCc4ccc(C)cc4)C3)c21` (stereo not given), the “activity change, negative = inhibition” value was inactive: -1.18% [at 46.1 µM].
For `Cc1noc(C)c1COc1ccc(C(=O)OCC(=O)NC(=O)C2COc3ccccc3O2)cc1` (stereo not given), the “activity change, negative = inhibition” value was inactive: -3.99%.
In the case of `c1ccc(CCn2nnnc2C(c2cccnc2)N2CCN(c3nc4ccccc4s3)CC2)cc1` (stereo not given), the Potency is reported as inconclusive: 10.3 µM [inhibitor, partial curve].
With `CCOC(=O)c1c(C)n(-c2ccc(C)cc2)c2ccc(OCC(O)CNCCCO)cc12` (stereo not given) the Potency was inconclusive: 7.08 µM [inhibitor, full curve, poor fit].
With `COc1cc(C(=O)COC(=O)c2ccncc2)cc(OC)c1OC` the “activity change, negative = inhibition” value was inactive: 15.3% [at 46.1 µM].
For `COc1ccc(Cl)cc1S(=O)(=O)NC(C)C(=O)NCc1ccncc1` (stereo not given), the Potency was inconclusive: 6.31 µM [inhibitor, partial curve, poor fit].
For `COc1ccc(C2(SCC(N)C(=O)O)c3ccccc3-c3ccccc32)cc1` (stereo not given), the “activity change, negative = inhibition” value was inactive: -5.5%.
In the case of `NC(=O)c1ccc(SCC(=O)OCC(=O)N2CCCCC2)c([N+](=O)[O-])c1`, the “activity change, negative = inhibition” value is reported as inactive: 16.1%.
In the case of `CC(C)(C)c1cc(NC(=O)CCl)n(-c2ccccc2)n1`, the Potency is reported as inconclusive: 16.4 µM [inhibitor, partial curve, poor fit].
In the case of `CCn1c2ccccc2c2cc(NC(=O)COC(=O)c3ccccc3F)ccc21`, the “activity change, negative = inhibition” value is reported as inactive: 1.83%.
In the case of `COc1cccc2c1C(=O)c1c(O)c3c(c(O)c1C2=O)CC(O)(C(C)=O)CC3OC1CC(O)C(O)C(C)O1` (stereo not given), the Potency is reported as active: 1.41 µM.
In the case of `CNC(=O)c1ccc(-c2sc3nc(N4CCOCC4)c4c(c3c2N)CCCC4)o1`, the “activity change, negative = inhibition” value is reported as inactive: -14.7%.
For `Cc1cccc(-c2nnc(SCC(=O)N3c4ccccc4CCc4ccccc43)n2C)c1`, the Potency was inconclusive: 15.8 µM [inhibitor, single point].
For `Cc1ccc(C(=O)CSc2nc(C)cc(C)c2C(=O)Nc2cccc(C)c2)cc1`, the “activity change, negative = inhibition” value was inactive: -8.08% [at 46.1 µM].
In the case of `Cc1ccc(S(=O)(=O)Nc2cc(S(=O)(=O)N3CCOCC3)ccc2NCC2CCCO2)cc1` (stereo not given), the Potency is reported as inconclusive: 35.5 µM [inhibitor, single point].
For `CC(=O)Nc1c(C(=O)c2ccc(F)cc2)oc2ccccc12`, the “activity change, negative = inhibition” value was inactive: -15%.
For `Cc1ccccc1N(CC(=O)NC1CCCC1)C(=O)c1oc(C(C)(C)C)cc1C`, the Potency was inconclusive: 20.6 µM [inhibitor, single point].
In the case of `CSc1nn(Cc2ccc(F)cc2)c(N(C(C)=O)C(C)=O)c1S(=O)(=O)c1ccccc1`, the Potency is reported as inconclusive: 1 µM [inhibitor, full curve].
For `Fc1ccc(-c2noc(C3CCN(Cc4cccnc4)CC3)n2)cc1`, the Potency was inconclusive: 22.4 µM [inhibitor, single point].
In the case of `Cc1ccc(C(=O)/C=C/c2ccco2)c(O)c1`, the Potency is reported as inconclusive: 12.6 µM [activator, single point].
With `CC12C=CC3(O1)C(C(=O)N(c1ccccc1)C3C(=O)NC1CCCC1)C2C(N)=O` (stereo not given) the “activity change, negative = inhibition” value was inactive: 10.9%.
For `O=C1[C@@H]2[C@H]3[C@H](O)[C@H](O)CC(=NOC[C@@H](O)COCc4ccco4)[C@H]3CC[C@H]2C(=O)N1C[C@@H]1CCCO1`, the “activity change, negative = inhibition” value was inactive: 3.55% [at 14.2 µM].
With `Cc1ccc(Oc2ccccc2NC(=O)CSCC(=O)Nc2cc(C)on2)cc1` the Potency was active: 12.6 µM.
For `COc1cc2nc(C3CCC3)n(NC(=O)c3ccco3)c(=O)c2cc1OC`, the Potency was inconclusive: 4.47 µM [inhibitor, partial curve, poor fit].
For `Cc1nc(NC(=O)c2ccc3c(c2)OCCO3)ccc1Br`, the Potency was inconclusive: 10 µM [inhibitor, single point].
For `COC(=O)c1ccccc1NC(=O)C1CCCN(S(=O)(=O)c2ccccc2)C1` (stereo not given), the Potency was inconclusive: 16.4 µM [inhibitor, partial curve].
With `CCOC(=O)Cn1nc(NC(=O)COc2ccc(F)cc2)cc1C` the “activity change, negative = inhibition” value was inactive: -5.51%.
In the case of `COCCc1ccc(OCC(O)CNC(C)C)cc1` (stereo not given), the Potency is reported as inconclusive: 6.31 µM [activator, full curve] and inconclusive: 3.66 µM [activator, full curve, poor fit].
For `COc1ccc(C(=O)C2CCCN(Cc3c(F)ccc(F)c3F)C2)c(OC)c1` (stereo not given), the Potency was inconclusive: 20 µM [inhibitor, single point].
With `CC(C)COc1ccc(C(=O)N2CCCCC2CCN2CCOCC2)cc1` (stereo not given) the “activity change, negative = inhibition” value was inactive: -2.7% [at 46.1 µM].
For `CSc1nc2ccccc2n1CC(=O)Nc1ccc(C)c(C)c1`, the Potency was inconclusive: 35.5 µM [inhibitor, partial curve, poor fit].
With `COCc1c(C(=O)N/N=C/c2ccncc2)nnn1-c1nonc1N` the Potency was inconclusive: 5.01 µM [activator, partial curve, poor fit].
For `CC(C)CN(C(=O)c1ccc(C(F)(F)F)cc1)c1c(N)n(CC(C)C)c(=O)[nH]c1=O`, the activity change, negative = inhibition was inconclusive: 6.09% [activator] [at 46.1 µM].
With `COc1cc2c(cc1OC)CN(C(=S)Nc1cccc(Cl)c1C)CC2` the Potency was inconclusive: 11.2 µM [inhibitor, partial curve, poor fit].
With `Cc1cc(C(=O)CSc2nc(N)cc(N)n2)c(C)n1-c1cccc(F)c1` the Potency was inconclusive: 35.5 µM [inhibitor, single point].
In the case of `N#Cc1c(NC(=O)c2ccc(Cn3cc(Br)cn3)o2)sc2c1CCCCCC2`, the Potency is reported as inconclusive: 29.1 µM [inhibitor, single point].
With `CCOc1ccc(OCC)c(NC(=O)CSc2nc3c(c(=O)n(C)c(=O)n3C)n2C)c1` the “activity change, negative = inhibition” value was inactive: -1.25%.
In the case of `CC(C)C/C=C1\CCc2c([nH]c3ccccc23)C1=O`, the “activity change, negative = inhibition” value is reported as inactive: 10.5% [at 46.1 µM].
For `Cc1ccc(C[n+]2cccc(-c3ccccc3)c2)c(C)c1`, the Potency was inconclusive: 29.1 µM [inhibitor, single point].
With `O=[N+]([O-])/C=C/c1cn(Cc2ccccc2)c2ccccc12` the Potency was inconclusive: 35.5 µM [inhibitor, single point].

Source: PubChem BioAssay AID540276 (National Center for Advancing Translational Sciences (NCATS), 2011)
% is scaled to controls: 0 for no effect and ±100 for the full control effect; potency is read from the fitted curve at half-maximal effect.
